Reference: PMC3718762, “Differential Disruption of EWS-FLI1 Binding by DNA-Binding Agents” (PLoS ONE, 2013)
Counter-ions that a name gives are not always drawn.

Biological target: EWS-FLI1
Assay: AlphaScreen proximity assay, binding of recombinant EWS-FLI1 to cognate DNA oligo
Conditions: read-out: IC50 EWS-FLI1, disruption of recombinant EWS-FLI1 binding to DNA

Question: For `CCCCc1oc2ccccc2c1C(=O)c1cc(I)c(OCCN(CC)CC)c(I)c1` [Amiodarone HCl], which IC50 is on record?
Answer: 5.36 µM
